13 compounds from the M2OR odorant receptor database can be followed below.

This is a selection; strong and weak results do not stand in their true shares. Calls are pooled over several reports, among them a noisy single-well screen.

Details in all cases: stereoisomer not certain
For one experiment, the target named is T1, OR2AG1 (Homo sapiens) (UniProt Q9H205).
T1 sequence (whole entry): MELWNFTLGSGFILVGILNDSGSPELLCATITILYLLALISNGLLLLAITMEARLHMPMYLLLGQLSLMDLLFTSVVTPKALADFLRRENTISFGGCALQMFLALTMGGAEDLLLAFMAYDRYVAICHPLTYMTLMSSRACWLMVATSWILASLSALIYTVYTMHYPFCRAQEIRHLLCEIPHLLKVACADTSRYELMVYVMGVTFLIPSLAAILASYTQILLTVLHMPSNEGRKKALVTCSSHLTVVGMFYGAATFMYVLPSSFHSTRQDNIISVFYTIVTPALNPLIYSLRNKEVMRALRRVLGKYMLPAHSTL
The method, boiled down: (§1)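 Whether a receptor–molecule pair is responsive (active) rests on the original authors' judgment that its measured signal was statistically different from baseline. Pairs without that judgment are non-responsive (inactive). Sources used varied assay methods, commonly transient luciferase assays in mammalian cell lines.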

The target of the next experiment is T2, OR2AG2 (Homo sapiens) (UniProt A6NM03).
T2 sequence (whole entry): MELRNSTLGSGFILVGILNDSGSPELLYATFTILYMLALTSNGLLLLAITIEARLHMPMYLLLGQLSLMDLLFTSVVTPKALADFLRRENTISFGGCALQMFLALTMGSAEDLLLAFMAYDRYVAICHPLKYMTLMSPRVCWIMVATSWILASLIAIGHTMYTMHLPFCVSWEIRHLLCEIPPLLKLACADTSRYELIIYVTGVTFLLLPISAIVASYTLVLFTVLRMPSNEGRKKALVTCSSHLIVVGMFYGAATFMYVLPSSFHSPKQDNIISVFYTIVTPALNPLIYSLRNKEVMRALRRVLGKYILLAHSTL
An outline of the steps: as §1

For a further experiment, the target named is T3, OR2AP1 (Homo sapiens) (UniProt Q8NGE2).
T3 sequence (whole entry): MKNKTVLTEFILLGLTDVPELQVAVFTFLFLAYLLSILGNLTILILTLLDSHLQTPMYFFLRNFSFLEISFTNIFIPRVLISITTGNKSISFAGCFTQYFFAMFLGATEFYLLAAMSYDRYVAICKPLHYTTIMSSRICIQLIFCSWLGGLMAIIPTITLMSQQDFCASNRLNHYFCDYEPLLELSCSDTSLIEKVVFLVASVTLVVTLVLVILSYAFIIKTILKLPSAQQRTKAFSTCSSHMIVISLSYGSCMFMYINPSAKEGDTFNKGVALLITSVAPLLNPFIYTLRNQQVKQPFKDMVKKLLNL
An outline of the steps:
as §1

For a further experiment, the target named is T4, OR2AT4 (Homo sapiens) (UniProt A6NND4).
T4 sequence (whole entry): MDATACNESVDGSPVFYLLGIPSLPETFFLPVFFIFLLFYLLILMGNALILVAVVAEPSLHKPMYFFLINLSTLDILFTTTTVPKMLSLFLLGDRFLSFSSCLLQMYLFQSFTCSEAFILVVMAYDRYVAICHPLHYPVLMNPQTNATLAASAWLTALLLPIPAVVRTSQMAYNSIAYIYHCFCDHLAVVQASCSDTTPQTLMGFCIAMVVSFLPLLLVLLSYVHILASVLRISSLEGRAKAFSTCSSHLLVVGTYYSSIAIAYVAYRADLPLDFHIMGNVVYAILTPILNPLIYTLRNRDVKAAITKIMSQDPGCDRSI
An outline of the steps:
as §1

In a further experiment the target is T5, OR2B11 (Homo sapiens) (UniProt Q5JQS5).
T5 sequence (whole entry): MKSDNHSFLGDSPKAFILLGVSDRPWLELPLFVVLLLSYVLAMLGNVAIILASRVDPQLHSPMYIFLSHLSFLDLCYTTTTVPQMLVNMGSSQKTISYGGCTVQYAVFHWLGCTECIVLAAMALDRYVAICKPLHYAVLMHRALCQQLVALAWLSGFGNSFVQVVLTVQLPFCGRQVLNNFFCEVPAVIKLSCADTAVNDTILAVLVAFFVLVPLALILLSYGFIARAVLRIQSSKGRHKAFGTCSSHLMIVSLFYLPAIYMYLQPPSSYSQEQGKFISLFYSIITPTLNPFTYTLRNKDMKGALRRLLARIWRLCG
An outline of the steps:
as §1

For the next experiment, the target named is T6, OR2B2 (Homo sapiens) (UniProt Q9GZK3).
T6 sequence (whole entry): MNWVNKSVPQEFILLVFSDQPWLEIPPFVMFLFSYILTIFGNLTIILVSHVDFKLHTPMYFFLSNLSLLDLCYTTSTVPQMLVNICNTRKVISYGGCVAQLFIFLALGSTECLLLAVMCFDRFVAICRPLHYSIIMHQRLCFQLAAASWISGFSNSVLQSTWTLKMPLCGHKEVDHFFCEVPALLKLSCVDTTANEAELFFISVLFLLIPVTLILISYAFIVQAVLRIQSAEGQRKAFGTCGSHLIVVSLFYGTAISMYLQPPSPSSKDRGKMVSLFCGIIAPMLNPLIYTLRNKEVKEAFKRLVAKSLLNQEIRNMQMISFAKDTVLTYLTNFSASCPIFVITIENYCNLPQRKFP
An outline of the steps:
as §1

Another experiment deals with T7, OR2B3 (Homo sapiens) (UniProt O76000).
T7 sequence (whole entry): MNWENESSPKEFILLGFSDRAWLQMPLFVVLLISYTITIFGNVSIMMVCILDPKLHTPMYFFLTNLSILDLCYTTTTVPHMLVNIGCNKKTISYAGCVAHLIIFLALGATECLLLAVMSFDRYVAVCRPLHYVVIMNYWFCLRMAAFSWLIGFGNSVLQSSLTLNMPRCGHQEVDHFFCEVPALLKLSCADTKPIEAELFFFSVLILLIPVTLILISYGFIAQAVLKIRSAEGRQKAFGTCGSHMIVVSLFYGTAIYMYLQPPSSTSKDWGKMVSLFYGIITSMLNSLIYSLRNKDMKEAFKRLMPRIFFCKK
An outline of the steps: as §1
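Also: active if original authors judged signal statistically different from baseline.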

As to `CC1COCc2cc3c(cc21)C(C)(C)C(C)C3(C)C` (stereo unspecified), the “odorant receptor agonist call” value in the experiment with OR2AG1 (Homo sapiens), with OR2AG2 (Homo sapiens), with OR2AP1 (Homo sapiens), in the experiment with OR2AT4 (Homo sapiens), with OR2B11 (Homo sapiens) and with OR2B2 (Homo sapiens) was “active” in each case. The “odorant receptor agonist call” value with OR2B3 (Homo sapiens) is “active”.
With `CC(=O)C(C)=O`, the “odorant receptor agonist call” value in the experiment with OR2AG1 (Homo sapiens), with OR2AG2 (Homo sapiens), with OR2AP1 (Homo sapiens), with OR2AT4 (Homo sapiens), with OR2B11 (Homo sapiens) and in the experiment with OR2B2 (Homo sapiens) was “inactive” throughout. In the experiment with OR2B3 (Homo sapiens), the “odorant receptor agonist call” value was “inactive”.
Take `CC(C)(C)c1ccc(CCC=O)cc1`: the “odorant receptor agonist call” value with OR2AG1 (Homo sapiens), with OR2AG2 (Homo sapiens), with OR2AP1 (Homo sapiens), with OR2AT4 (Homo sapiens), in the experiment with OR2B11 (Homo sapiens) and with OR2B2 (Homo sapiens) was “inactive” throughout. In addition, the “odorant receptor agonist call” value with OR2B3 (Homo sapiens) is “inactive”.
`CCCCCCCC=CC=O`: the “odorant receptor agonist call” value with OR2AG1 (Homo sapiens), with OR2AG2 (Homo sapiens), with OR2AP1 (Homo sapiens), with OR2AT4 (Homo sapiens), in the experiment with OR2B11 (Homo sapiens) and with OR2B2 (Homo sapiens) was “inactive” in each case. For the same compound, the “odorant receptor agonist call” value in the experiment with OR2B3 (Homo sapiens) is “inactive”.
As for `CCCCO`, the “odorant receptor agonist call” value with OR2AG1 (Homo sapiens), in the experiment with OR2AG2 (Homo sapiens), in the experiment with OR2AP1 (Homo sapiens), with OR2AT4 (Homo sapiens), with OR2B11 (Homo sapiens) and in the experiment with OR2B2 (Homo sapiens) was “inactive” throughout. Also, the “odorant receptor agonist call” value with OR2B3 (Homo sapiens) was “inactive”.
As to `CC(=O)OCC=C(C)CCC=C(C)C`, the “odorant receptor agonist call” value in the experiment with OR2AG1 (Homo sapiens), with OR2AG2 (Homo sapiens), with OR2AP1 (Homo sapiens), with OR2AT4 (Homo sapiens), in the experiment with OR2B11 (Homo sapiens) and in the experiment with OR2B2 (Homo sapiens) was “inactive” throughout. Besides, the “odorant receptor agonist call” value with OR2B3 (Homo sapiens) was “inactive”.
In the case of `CCCCCCCCCCC=O`, the “odorant receptor agonist call” value in the experiment with OR2AG1 (Homo sapiens), with OR2AG2 (Homo sapiens), with OR2AP1 (Homo sapiens), with OR2AT4 (Homo sapiens), with OR2B11 (Homo sapiens) and in the experiment with OR2B2 (Homo sapiens) was “inactive” each time. Also, in the experiment with OR2B3 (Homo sapiens), the “odorant receptor agonist call” value was “inactive”.
On to `CCC1(O)C2(C)CCC(C2)C1(C)C` (stereo unspecified), for which the “odorant receptor agonist call” value in the experiment with OR2AG1 (Homo sapiens), with OR2AG2 (Homo sapiens), with OR2AP1 (Homo sapiens), in the experiment with OR2AT4 (Homo sapiens), with OR2B11 (Homo sapiens) and with OR2B2 (Homo sapiens) was “inactive” throughout. Also, the “odorant receptor agonist call” value with OR2B3 (Homo sapiens) was “inactive”.
`CCCCCC(C)=O`: the “odorant receptor agonist call” value with OR2AG1 (Homo sapiens), in the experiment with OR2AG2 (Homo sapiens), with OR2AP1 (Homo sapiens), in the experiment with OR2AT4 (Homo sapiens), in the experiment with OR2B11 (Homo sapiens) and with OR2B2 (Homo sapiens) was “inactive” each time. For the same compound, the “odorant receptor agonist call” value in the experiment with OR2B3 (Homo sapiens) is “inactive”.
As for `CC(C)=CCCC(C)=CC=O`, the “odorant receptor agonist call” value in the experiment with OR2AG1 (Homo sapiens), with OR2AG2 (Homo sapiens), with OR2AP1 (Homo sapiens), in the experiment with OR2AT4 (Homo sapiens), in the experiment with OR2B11 (Homo sapiens) and with OR2B2 (Homo sapiens) was “inactive” throughout. Besides, the “odorant receptor agonist call” value with OR2B3 (Homo sapiens) is “inactive”.
Turning to `COc1cc(C)ccc1O`, the “odorant receptor agonist call” value with OR2AG1 (Homo sapiens), with OR2AG2 (Homo sapiens), in the experiment with OR2AP1 (Homo sapiens), with OR2AT4 (Homo sapiens), with OR2B11 (Homo sapiens) and in the experiment with OR2B2 (Homo sapiens) was “inactive” each time. Further, in the experiment with OR2B3 (Homo sapiens), the “odorant receptor agonist call” value is “inactive”.
`COC(=O)c1ccccc1`: the “odorant receptor agonist call” value in the experiment with OR2AG1 (Homo sapiens), with OR2AG2 (Homo sapiens), in the experiment with OR2AP1 (Homo sapiens), with OR2AT4 (Homo sapiens), with OR2B11 (Homo sapiens) and with OR2B2 (Homo sapiens) was “inactive” each time. Further, the “odorant receptor agonist call” value with OR2B3 (Homo sapiens) is “active”.
For `CC(=O)OC(C)(C)C1CC=C(C)CC1` (stereo unspecified), the “odorant receptor agonist call” value with OR2AG1 (Homo sapiens), in the experiment with OR2AG2 (Homo sapiens), in the experiment with OR2AP1 (Homo sapiens), with OR2AT4 (Homo sapiens), with OR2B11 (Homo sapiens) and with OR2B2 (Homo sapiens) was “inactive” each time. In the experiment with OR2B3 (Homo sapiens), the “odorant receptor agonist call” value is “inactive”.
